The other results are listed elsewhere or left out. Most entries show no effect beyond the scatter of the controls.

Chains of the proteins cited; added tags and fusions are not shown. Lines headed by an entry give the natural chain unless they say otherwise; changes in a name come on top.
UniProt P98195: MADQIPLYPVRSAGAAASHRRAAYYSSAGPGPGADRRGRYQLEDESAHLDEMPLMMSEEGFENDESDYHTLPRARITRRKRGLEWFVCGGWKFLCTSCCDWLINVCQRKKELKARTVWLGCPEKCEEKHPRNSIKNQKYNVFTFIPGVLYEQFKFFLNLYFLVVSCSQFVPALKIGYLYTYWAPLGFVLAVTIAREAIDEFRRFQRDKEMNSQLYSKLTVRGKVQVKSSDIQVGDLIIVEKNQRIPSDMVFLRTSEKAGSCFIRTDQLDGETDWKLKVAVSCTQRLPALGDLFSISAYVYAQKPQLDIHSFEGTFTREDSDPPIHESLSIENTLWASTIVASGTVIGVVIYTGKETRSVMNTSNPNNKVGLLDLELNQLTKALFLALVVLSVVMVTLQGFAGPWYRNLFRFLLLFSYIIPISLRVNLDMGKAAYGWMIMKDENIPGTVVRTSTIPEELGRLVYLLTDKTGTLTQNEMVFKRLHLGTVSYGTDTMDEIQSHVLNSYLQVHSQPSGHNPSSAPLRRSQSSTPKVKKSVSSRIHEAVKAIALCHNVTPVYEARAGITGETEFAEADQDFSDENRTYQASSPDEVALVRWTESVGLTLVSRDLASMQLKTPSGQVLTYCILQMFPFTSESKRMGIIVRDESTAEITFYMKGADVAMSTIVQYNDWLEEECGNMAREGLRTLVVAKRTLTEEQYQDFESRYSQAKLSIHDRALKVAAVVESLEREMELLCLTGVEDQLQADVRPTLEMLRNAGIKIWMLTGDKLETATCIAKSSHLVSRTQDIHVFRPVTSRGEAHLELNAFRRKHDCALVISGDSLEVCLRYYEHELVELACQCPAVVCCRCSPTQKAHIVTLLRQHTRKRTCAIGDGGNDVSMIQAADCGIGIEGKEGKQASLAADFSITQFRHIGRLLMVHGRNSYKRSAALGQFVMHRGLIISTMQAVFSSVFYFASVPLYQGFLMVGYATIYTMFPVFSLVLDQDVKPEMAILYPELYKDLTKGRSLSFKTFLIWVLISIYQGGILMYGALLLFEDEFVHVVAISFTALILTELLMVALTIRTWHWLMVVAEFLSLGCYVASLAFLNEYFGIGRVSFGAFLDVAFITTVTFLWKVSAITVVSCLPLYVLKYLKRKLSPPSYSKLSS
UniProt P97371: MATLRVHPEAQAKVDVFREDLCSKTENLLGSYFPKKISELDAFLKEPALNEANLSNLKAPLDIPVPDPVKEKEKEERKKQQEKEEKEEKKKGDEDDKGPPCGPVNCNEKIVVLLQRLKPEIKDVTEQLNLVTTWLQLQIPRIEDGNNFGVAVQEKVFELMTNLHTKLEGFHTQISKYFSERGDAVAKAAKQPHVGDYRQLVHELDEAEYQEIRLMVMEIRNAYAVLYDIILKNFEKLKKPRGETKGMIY
UniProt P97785: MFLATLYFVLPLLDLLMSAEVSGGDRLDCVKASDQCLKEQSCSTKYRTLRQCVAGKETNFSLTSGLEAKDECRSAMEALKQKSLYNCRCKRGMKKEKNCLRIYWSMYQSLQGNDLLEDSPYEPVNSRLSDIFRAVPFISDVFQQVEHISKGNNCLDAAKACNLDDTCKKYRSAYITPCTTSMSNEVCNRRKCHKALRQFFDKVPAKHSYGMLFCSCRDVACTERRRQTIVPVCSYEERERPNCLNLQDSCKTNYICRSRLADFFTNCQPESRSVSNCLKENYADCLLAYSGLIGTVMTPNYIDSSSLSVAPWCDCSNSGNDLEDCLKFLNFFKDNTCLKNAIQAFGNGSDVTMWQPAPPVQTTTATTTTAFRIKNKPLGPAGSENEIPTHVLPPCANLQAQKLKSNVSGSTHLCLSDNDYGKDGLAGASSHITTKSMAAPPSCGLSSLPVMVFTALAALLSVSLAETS
UniProt P97348: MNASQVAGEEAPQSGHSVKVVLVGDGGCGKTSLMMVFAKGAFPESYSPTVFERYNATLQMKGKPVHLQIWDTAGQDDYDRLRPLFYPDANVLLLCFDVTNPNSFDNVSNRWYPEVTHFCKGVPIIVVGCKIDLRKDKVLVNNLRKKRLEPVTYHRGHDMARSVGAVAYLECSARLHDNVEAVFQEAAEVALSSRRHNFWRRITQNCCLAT
UniProt P99025: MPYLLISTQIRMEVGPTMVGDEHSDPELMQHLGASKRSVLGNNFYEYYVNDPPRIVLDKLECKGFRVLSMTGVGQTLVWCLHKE
UniProt P70335: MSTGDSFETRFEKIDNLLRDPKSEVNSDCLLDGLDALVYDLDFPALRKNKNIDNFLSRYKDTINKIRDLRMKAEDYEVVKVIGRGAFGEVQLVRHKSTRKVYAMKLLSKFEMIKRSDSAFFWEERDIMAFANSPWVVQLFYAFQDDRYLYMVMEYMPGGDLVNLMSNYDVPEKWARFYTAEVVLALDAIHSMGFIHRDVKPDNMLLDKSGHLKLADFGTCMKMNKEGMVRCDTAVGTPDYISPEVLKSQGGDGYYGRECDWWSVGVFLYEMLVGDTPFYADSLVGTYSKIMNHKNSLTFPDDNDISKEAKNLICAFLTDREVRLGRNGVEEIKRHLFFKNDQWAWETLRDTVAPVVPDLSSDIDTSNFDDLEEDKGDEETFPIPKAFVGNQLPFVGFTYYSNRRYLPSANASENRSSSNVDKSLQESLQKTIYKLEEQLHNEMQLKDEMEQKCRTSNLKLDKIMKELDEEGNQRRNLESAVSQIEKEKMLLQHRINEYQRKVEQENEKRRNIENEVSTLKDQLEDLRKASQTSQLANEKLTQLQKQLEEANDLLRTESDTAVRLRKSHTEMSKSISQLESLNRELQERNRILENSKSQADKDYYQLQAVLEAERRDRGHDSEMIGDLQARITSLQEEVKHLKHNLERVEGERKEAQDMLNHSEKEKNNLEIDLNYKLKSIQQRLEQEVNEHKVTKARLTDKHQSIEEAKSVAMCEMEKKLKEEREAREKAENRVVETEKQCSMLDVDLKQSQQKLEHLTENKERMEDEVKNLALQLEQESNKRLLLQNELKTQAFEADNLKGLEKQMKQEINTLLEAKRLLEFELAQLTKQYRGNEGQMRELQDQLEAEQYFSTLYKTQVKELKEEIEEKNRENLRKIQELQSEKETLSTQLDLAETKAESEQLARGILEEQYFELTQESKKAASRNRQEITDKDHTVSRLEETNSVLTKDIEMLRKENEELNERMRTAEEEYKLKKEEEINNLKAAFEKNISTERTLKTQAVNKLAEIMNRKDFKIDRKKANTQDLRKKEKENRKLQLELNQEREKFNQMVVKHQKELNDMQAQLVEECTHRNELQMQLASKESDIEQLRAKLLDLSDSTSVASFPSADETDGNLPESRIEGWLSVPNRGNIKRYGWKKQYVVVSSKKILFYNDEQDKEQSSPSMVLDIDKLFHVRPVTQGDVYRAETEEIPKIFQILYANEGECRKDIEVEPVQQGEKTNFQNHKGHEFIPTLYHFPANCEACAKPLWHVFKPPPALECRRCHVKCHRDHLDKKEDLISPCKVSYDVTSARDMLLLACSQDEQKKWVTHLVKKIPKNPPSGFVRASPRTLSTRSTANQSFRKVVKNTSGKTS
UniProt P97411: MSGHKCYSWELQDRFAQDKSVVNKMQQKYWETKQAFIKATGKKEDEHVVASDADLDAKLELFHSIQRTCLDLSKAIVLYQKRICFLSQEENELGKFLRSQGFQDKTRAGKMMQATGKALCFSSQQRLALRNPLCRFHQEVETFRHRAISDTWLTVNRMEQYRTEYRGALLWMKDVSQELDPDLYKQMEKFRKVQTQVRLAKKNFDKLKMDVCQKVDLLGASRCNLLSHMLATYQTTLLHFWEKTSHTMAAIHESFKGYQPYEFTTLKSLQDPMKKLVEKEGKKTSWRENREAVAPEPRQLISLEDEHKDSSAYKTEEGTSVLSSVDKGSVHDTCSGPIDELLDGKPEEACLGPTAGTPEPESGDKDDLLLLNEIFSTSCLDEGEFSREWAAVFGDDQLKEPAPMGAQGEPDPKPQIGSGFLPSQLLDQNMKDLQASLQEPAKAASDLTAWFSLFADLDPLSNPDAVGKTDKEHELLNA
UniProt P70375: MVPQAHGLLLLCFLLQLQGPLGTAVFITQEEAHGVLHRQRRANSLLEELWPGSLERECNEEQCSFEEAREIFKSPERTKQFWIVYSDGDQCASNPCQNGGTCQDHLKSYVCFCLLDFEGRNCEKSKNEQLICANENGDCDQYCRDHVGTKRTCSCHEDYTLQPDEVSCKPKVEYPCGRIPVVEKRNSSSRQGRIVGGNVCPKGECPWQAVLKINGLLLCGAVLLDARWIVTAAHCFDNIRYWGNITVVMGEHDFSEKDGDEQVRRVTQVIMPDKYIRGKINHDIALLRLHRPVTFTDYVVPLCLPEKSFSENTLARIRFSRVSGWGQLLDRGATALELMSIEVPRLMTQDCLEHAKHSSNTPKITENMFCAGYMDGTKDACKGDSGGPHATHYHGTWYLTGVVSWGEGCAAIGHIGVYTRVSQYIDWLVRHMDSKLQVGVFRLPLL
UniProt P97328: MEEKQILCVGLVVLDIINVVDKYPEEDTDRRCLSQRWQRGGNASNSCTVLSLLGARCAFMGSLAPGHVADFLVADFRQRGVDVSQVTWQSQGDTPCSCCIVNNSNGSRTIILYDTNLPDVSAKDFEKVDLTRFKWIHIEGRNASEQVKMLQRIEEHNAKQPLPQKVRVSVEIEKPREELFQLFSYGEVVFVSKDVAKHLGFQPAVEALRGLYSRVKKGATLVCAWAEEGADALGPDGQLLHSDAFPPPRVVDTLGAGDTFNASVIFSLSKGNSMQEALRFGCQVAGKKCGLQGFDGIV
UniProt P70347: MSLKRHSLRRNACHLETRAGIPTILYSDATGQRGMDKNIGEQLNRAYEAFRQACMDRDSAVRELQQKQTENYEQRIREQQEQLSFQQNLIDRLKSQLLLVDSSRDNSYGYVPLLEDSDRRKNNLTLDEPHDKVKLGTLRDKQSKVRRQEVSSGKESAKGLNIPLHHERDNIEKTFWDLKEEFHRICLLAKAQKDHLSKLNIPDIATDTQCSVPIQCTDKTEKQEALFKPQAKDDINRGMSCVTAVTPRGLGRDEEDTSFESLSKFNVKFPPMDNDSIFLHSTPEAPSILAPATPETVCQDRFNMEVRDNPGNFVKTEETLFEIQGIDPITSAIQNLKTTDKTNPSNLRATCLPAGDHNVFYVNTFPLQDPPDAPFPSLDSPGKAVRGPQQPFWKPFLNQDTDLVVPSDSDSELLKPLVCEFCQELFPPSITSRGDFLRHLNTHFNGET

Compound in the test: CN[C@@H]1C[C@H]2O[C@@](C)([C@@H]1OC)n1c3ccccc3c3c4c(c5c6ccccc6n2c5c31)C(=O)NC4 [staurosporine]
Put plainly: log2 fold change of tryptic peptide abundance, ligand vs vehicle (limited proteolysis) (log2 ratio); higher = more trypsin-susceptible (destabilized). The settings on record: ligand concentration: 20 uM; sample: mouse liver crude lysate; replicate design: treated separately.
Take “UniProt P98195 (peptide sequence: AAYYSSAGPGPGADRR, peptide start residue: 22)”: the log2 fold change was -0.215. As to “UniProt P63328 (peptide sequence: LSTTDRVVK, peptide start residue: 11)”, the log2 fold change was -0.166. As to “UniProt P97371 (peptide sequence: VFELMTNLHTK, peptide start residue: 156)”, the log2 fold change came to 0.213. Turning to “UniProt P97785 (peptide sequence: ASDQCLKEQSCSTK, peptide start residue: 32)”, the log2 fold change was determined as 0.444. The value for “UniProt P97348 (peptide sequence: VVLVGDGGCGK, peptide start residue: 20)” was -0.11; that for “UniProt P99025 (peptide sequence: IVLDKLECK, peptide start residue: 55)” was 0.0222; that for “UniProt P70335 (peptide sequence: EAQDMLNHSEKEK, peptide start residue: 654)” was 0.236. For the target “UniProt P97411 (peptide sequence: EAVAPEPR, peptide start residue: 291)”, the log2 fold change is 0.00721. The value for “UniProt P70375 (peptide sequence: LMTQDCLEHAK, peptide start residue: 346)” was -0.158. As to “UniProt P97351 (peptide sequence: KVVDPFSK, peptide start residue: 20)”, the log2 fold change was 0.144. The value for “UniProt P97328 (peptide sequence: FGCQVAGKK, peptide start residue: 280)” was -0.324. As to “UniProt P70347 (peptide sequence: TTDKTNPSNLR, peptide start residue: 338)”, the log2 fold change was determined as 0.326.
